Data taken from paper PMC3101213.

Sequences of proteins named here, by UniProt entry; tags and fusion partners are left off.
UniProt P03372, whole entry: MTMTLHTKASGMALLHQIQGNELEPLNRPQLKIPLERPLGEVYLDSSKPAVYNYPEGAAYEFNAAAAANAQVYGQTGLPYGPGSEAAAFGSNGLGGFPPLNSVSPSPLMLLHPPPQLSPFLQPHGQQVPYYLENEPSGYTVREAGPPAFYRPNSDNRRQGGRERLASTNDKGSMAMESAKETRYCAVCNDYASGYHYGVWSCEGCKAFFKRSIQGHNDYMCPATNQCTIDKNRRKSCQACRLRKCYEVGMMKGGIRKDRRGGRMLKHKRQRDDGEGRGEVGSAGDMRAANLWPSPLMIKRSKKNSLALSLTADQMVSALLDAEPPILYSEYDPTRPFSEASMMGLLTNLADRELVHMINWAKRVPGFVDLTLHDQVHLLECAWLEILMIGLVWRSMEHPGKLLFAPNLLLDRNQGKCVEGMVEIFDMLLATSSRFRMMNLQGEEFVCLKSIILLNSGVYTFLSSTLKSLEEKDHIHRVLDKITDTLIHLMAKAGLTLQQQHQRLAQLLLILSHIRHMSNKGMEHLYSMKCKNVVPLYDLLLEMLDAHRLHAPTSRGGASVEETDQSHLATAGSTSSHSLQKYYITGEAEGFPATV

Tests used:
[1] = target: ERα (estrogen receptor alpha, endogenous in ZR75-1 nuclear extract) (UniProt P03372); test: EMSA supershift; settings: 10 nM E2, ZR75-1 nuclear extract, empty vector, inhibited by 100-fold cold ERE; 10 µg nuclear extract, 1 nmol oligonucleotide, 2.5% glycerol, 0.05% NP-40, 50 mM KCl, 5 mM MgCl2, 1 mM EDTA, 10 mM Tris pH 7.6, 50 ng poly(dI-dC), 30 min; protein in an extract; label: biotin 3' end
[2] = target: ERα (estrogen receptor alpha, endogenous in ZR75-1 nuclear extract) (UniProt P03372); test: EMSA; settings: 10 µg nuclear extract, 1 nmol oligonucleotide, 2.5% glycerol, 0.05% NP-40, 50 mM KCl, 5 mM MgCl2, 1 mM EDTA, 10 mM Tris pH 7.6, 50 ng poly(dI-dC), 30 min, protein in an extract, label: biotin 3' end

“AGCTCTTTGATCAGGTCACTGTGACCTGACTTT (double strand) [ERE]”: binds [1]; binds ([2]; 10 nM E2, ZR75-1 nuclear extract with FLAG-CTGF overexpressed, binding not affected).
“AGCTCTTTGATCAGTACACTGTGACCTGACTTT (double strand) [EREM (mutant ERE)]”: no binding ([2]; 10 nM E2, ZR75-1 nuclear extract).

Construct, isoform or probe ends are uncertain for at least one entry. Where cells or extracts were used, other partners may take part. For part of these data: No signal at the amounts used counts as a negative.
